2 molecules from US20190263898A1 can be followed below.

These are yes or no findings as the source states them, for the method shown. Some binding calls cover weakened binding; strength is not graded here. For some of these results: Where a sequence is shown, tags or fusion partners need not be part of it.

Experiment [1] concerns the target T1, truncated Tau protein in fiber form (polymerized R3 peptide).
T1 sequence (peptide): VQIVYKPVDLSKVTSKCG
Briefly: ELISA, unlabeled 2C5 titrated on polymers of the R3 sequence of Tau (R3 Fibers), PBS with 1% BSA, pH 7.5; PBS wells as control. On the technique in general: In an ELISA, binding on a coated surface is turned into a signal by an enzyme label.

Experiment [2] shares this target. Briefly: ELISA, 2C5 titrated on polymerized R3 peptide (Mimes).
For experiment [3] the target is unchanged. The experiment can be described thus: ELISA on polymers of the R3 sequence of Tau, PBS with 1% BSA, pH 7.5.
For experiment [4] the target is unchanged. The experiment can be described thus: ELISA-format assay with 2C5 radiolabeled with iodine 125 on polymers of the R3 sequence of Tau, CPM readout (sheet title: RIA 125I 2C5), PBS with 1% BSA, pH 7.5; PBS wells as control.

B1: 2C5 nanobody (VHH) with C-terminal myc and six histidine residues tag (VHH)
VHH: QVQLVQSGGGLVQAGGSLRLSCAASGRTFSSDTLAWFRQAPGKEREFVASISPSGGVTYYEDSVKGRFTISRDNSKNTVLLQMNSLTPEDTAVYYCNRDPKYGNTRYWGQGTQVTVSS
On to B1, for which the binding entry in experiment [1] and in experiment [2] was “binds” in each case.

B2: 2C5 nanobody radiolabeled with iodine 125 (VHH)
VHH: B1 VHH
modifications: radiolabeled with iodine 125 (site not stated)
For B2, the binding entry in experiment [3] and in experiment [4] was “binds” in each case.
